Values quoted from earlier work as cited in US20240197652A1, “KETAMINE IN THE TREATMENT OF […]” (Awakn LS Europe Holdings Limited, priority 2021, published 2024).
Where two headings read alike, the source gives them in different places. The name of at least one read-out is uncertain.

Details: cited from earlier work

CNC1(c2ccccc2Cl)CCCCC1=O (racemic) [ketamine, 2-(2-chlorophenyl)-2-(methylamino)-cyclohexanone]
relative bioavailability (intramuscular): about 93% | relative bioavailability (intranasal): about 50% | relative bioavailability (nasal): about 45% | relative bioavailability (rectal): about 30% | relative bioavailability (sublingual): about 30%
